The source of these data is patent US4431742A, “Radioreceptor assay for benzodiazepines in saliva” (The United States of America as represented by the …, priority 1981, dated 1984).

The data set relates to benzodiazepine receptor (fresh rat frontal cortex). The experiment in a line: lower limit of sensitivity of the saliva radioreceptor assay. It counts as binding. Conditions: 100λ of two-fold diluted saliva.
Regarding `CNC1=Nc2ccc(Cl)cc2C(c2ccccc2)=[N+]([O-])C1` [chlordiazepoxide], the “lower limit of sensitivity (7% inhibition of specific binding)” value is 1.50 ng/mL.
Take `CN1C(=O)CN=C(c2ccccc2)c2cc(Cl)ccc21` [diazepam]: the “lower limit of sensitivity (7% inhibition of specific binding)” value turned out to be 0.14 ng/mL.
On to `O=C1CN=C(c2ccccc2)c2cc([N+](=O)[O-])ccc2N1` [nitrazepam], for which the “lower limit of sensitivity (7% inhibition of specific binding)” value came to 0.28 ng/mL.
Turning to `O=C1Nc2ccc(Cl)cc2C(c2ccccc2)=NC1O` (stereo not shown) [oxazepam], the “lower limit of sensitivity (7% inhibition of specific binding)” value was found to be 2.87 ng/mL.
